Measured values: patent publication US7122326B2 (Universite Louis Pasteur, priority 2001, dated 2006)

Experiments:
[1] = system: xanthurenic acid binding site(s); experiment: [3H]-XA binding to synaptic membranes in the presence of copper ions; set-up: species or system rat
[2] = system: xanthurenic acid binding site(s); experiment: [3H]-XA binding to synaptic membranes, without ions; set-up: species or system rat

Question: How did the Bmax [1] turn out when `O=C(O)c1cc(O)c2cccc(O)c2n1` [XA, xanthurenic acid] was run?
Answer: The Bmax was 581.8±33 pmol/mg of protein.

Question: And the “optimum pH for xanthurenic acid binding” value [1]?
Answer: Its value is 6.4–6.5.

Question: And the Bmax [2]?
Answer: The Bmax was 6.9±1.2 pmol/mg of protein.

Question: And the “optimum pH for xanthurenic acid binding” value [2]?
Answer: Its value is 7.4–7.5.
